PubChem BioAssay AID743121, NCATS, 2013

Test: 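Knock-downs that sensitise breast cancer cells to camptothecin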 (primary screen)
Cell system: MDA-MB-231 cells, a human breast cancer line
Knock-down reagent: single siRNA against human genes, 20 nM siRNA (0.8 pmol per well)
Timing: 120 h (drug added 48 h after transfection, read 72 h later)
Conditions: camptothecin 20 nM (about EC30) for 72 h; vehicle 0.1% DMSO in parallel plates
Read-out: 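Cell viability by ATP luminescence (CellTiter-Glo) as % of non-targeting siRNA wells, and the log2 ratio of viability without drug over viability with camptothecin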
Reading the numbers: log2 vehicle/camptothecin viability: higher = stronger sensitisation to camptothecin; viability with camptothecin and viability without drug: higher = more viable cells
Call rule: 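Active genes have an RSA gene-level p-value below 0.001, computed from the ratios of their separate siRNAs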
This is a random part of about 26,000 deposited reagents. Of all reagents, 167 (0.63%) are marked active. 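Calls are per gene from RSA p-values that are not deposited; an individual active-marked siRNA can sensitise only weakly.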 The numbers tell different reagents against one gene apart.

Target gene	reagent	log2 vehicle/camptothecin viability	viability with camptothecin (% of control)	viability without drug (% of control)	Outcome
FKBP7	1	-0.0291	64.8	63.5	inactive
FKBP7	2	-0.461	21.3	15.5	inactive
FKBP7	3	-0.174	71.1	63	inactive
FKBP7	4	0.0551	101	105	inactive
KIF26B	1	-0.181	38.1	33.6	inactive
KIF26B	2	-0.625	102	65.8	inactive
KIF26B	3	0.257	64.6	77.2	inactive
KIF26B	4	-0.26	90.5	75.6	inactive
NEO1	1	0.125	94.6	103	inactive
NEO1	2	0.295	73.7	90.4	inactive
NEO1	3	-0.0866	44.9	42.3	inactive
NEO1	4	-0.0991	85.9	80.2	inactive
DPEP3	1	-0.121	114	105	inactive
DPEP3	2	-0.16	98.8	88.5	inactive
DPEP3	3	-0.255	66.8	56	inactive
DPEP3	4	-0.573	120	80.3	inactive
BSPRY	1	-0.0594	94	90.2	inactive
BSPRY	2	0.0618	36.7	38.3	inactive
BSPRY	3	-0.0814	101	95.9	inactive
BSPRY	4	-0.0736	52.6	50	inactive
ATM	1	-0.153	104	93.4	inactive
ATM	2	0.169	65.9	74.1	inactive
ATM	3	-0.537	63.9	44	inactive
ATM	4	-0.298	63.7	51.8	inactive
MEPCE	1	0.383	68	88.6	inactive
MEPCE	2	-0.101	62.3	58.1	inactive
MEPCE	3	-0.458	102	74.2	inactive
MEPCE	4	-0.266	77.3	64.2	inactive
OR3A3	1	0.303	32.2	39.8	inactive
OR3A3	2	-0.238	78.2	66.3	inactive
OR3A3	3	0.0891	86.6	92.1	inactive
BCAM	1	-0.272	67.7	56.1	inactive
BCAM	2	-0.345	55.7	43.8	inactive
BCAM	3	-0.0524	23	22.1	inactive
CD1D	1	-0.176	41.7	36.9	inactive
CD1D	2	-0.0614	77.7	74.5	inactive
CD1D	3	0.0041	83.1	83.3	inactive
CD1D	4	0.301	29.7	36.6	inactive
OPRD1	1	-0.165	108	96.6	inactive
OPRD1	2	0.609	4.51	6.87	inactive
OPRD1	3	-0.439	89.2	65.8	inactive
OPRD1	4	0.022	56.9	57.7	inactive
AR	1	-0.109	68.6	63.6	inactive
AR	2	-0.0418	75.4	73.2	inactive
AR	3	-0.352	155	121	inactive
KCNA3	1	0.105	102	110	inactive
KCNA3	2	-0.437	85.8	63.4	inactive
KCNA3	3	0.0832	77.8	82.5	inactive
KCNA3	4	-0.297	103	84.1	inactive
DECR2	1	-0.421	81.2	60.6	inactive
DECR2	2	-0.511	92.1	64.6	inactive
DECR2	3	-0.096	62.8	58.8	inactive
DECR2	4	-0.0338	107	104	inactive
SNX13	1	0.0473	88.2	91.1	inactive
SNX13	2	-0.497	101	71.5	inactive
SNX13	3	0.108	90.3	97.3	inactive
SNX13	4	-0.271	132	110	inactive
USP44	1	-0.0859	94.4	88.9	inactive
USP44	2	-0.285	81.1	66.6	inactive
USP44	3	-0.343	63.5	50.1	inactive
USP44	4	-0.808	69.1	39.5	inactive
GJB6	1	-0.0123	90.5	89.7	inactive
GJB6	2	-0.0203	92.8	91.5	inactive
GJB6	3	-0.962	82	42.1	inactive
LINC00312	1	-0.221	72.6	62.3	inactive
LINC00312	2	-0.163	112	100	inactive
LINC00312	3	-0.345	79.3	62.4	inactive
KIF21A	1	0.128	106	116	inactive
KIF21A	2	-0.112	76.5	70.8	inactive
KIF21A	3	-0.464	81.2	58.9	inactive
MYOD1	1	-0.467	95.4	69	inactive
MYOD1	2	-1.16	81.9	36.8	inactive
MYOD1	3	-0.148	96.9	87.4	inactive
MYOD1	4	-0.0913	104	97.5	inactive
CIP2A	1	0.0335	53.5	54.7	inactive
CIP2A	2	0.208	72.8	84.1	inactive
CIP2A	3	-0.0984	76.3	71.3	inactive
CIP2A	4	-0.0729	74	70.4	inactive
PSEN1	1	0.1	101	108	inactive
PSEN1	2	-0.305	61.1	49.5	inactive
PSEN1	3	0.0291	105	107	inactive
PSEN1	4	-0.318	73.7	59.2	inactive
HMGB1	1	-0.533	73.6	50.9	inactive
HMGB1	2	-0.296	89	72.5	inactive
HMGB1	3	-0.347	114	89.6	inactive
HMGB1	4	-0.0511	108	104	inactive
DEFB4A	1	-0.515	55.9	39.1	inactive
DEFB4A	2	0.316	65.4	81.4	inactive
DEFB4A	3	-0.00869	74.2	73.8	inactive
DEFB4A	4	-0.137	63.9	58.1	inactive
